# PubChem BioAssay AID1159578, Peter MacCallum Cancer Centre | 2015
# Screen: 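Genome-wide hunt for genes controlling movement of lymphatic endothelial cells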 (primary screen)
# System: human lymphatic endothelial cells
# Reagent: siRNA pool against human genes, 40 nM
# Time to read-out: 48 h after transfection
# Measured: 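High-content imaging of dye-stained cells in a scratch assay measures filled wound area and nuclei per well; duplicate means given as ratio to mock and robust z-score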
# Direction: migration robust z-score: higher = faster migration into the scratch; nuclei per well: higher = more cells in the well
# Active means: 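Migration changed when robust z exceeds 2 or falls below -2 and mean nuclei number is at least 3300; otherwise not called changed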
# Meaning of the calls: active = migration changed; inactive = no migration change, or too few cells
# The deposit covers about 18,000 reagents; this is a part drawn at random. Over the whole deposit, about 1,030 (5.7%) are marked active. 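Inactive calls also include pools with fewer than 3300 nuclei, whose migration was not assessed.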 Raw values are not corrected between plates. Further read-outs or replicates are left out here.
Target gene,migration robust z-score,migration class with cell-count check,"nuclei per well, duplicate mean",outcome
IL32 (interleukin 32),-1.39,migration z between -2 and 2; enough cells,6148,inactive
TRIB3 (tribbles pseudokinase 3),0.26,migration z between -2 and 2; enough cells,5194,inactive
HOXA4 (homeobox A4),-0.91,migration z between -2 and 2; enough cells,6289,inactive
CCR2 (C-C motif chemokine receptor 2),0.06,migration z between -2 and 2; enough cells,5279,inactive
IDH3A (isocitrate dehydrogenase (NAD(+)) 3 catalytic subunit alpha),0.86,migration z between -2 and 2; enough cells,6406,inactive
"PCDHGB4 (protocadherin gamma subfamily B, 4)",0.54,migration z between -2 and 2; enough cells,7002,inactive
BPHL (biphenyl hydrolase like),0.29,migration z between -2 and 2; enough cells,7532,inactive
ZNF207 (zinc finger protein 207),-1.17,migration z between -2 and 2; enough cells,6494,inactive
KLHL11 (kelch like family member 11),0.22,migration z between -2 and 2; enough cells,5799,inactive
OR6C65 (olfactory receptor family 6 subfamily C member 65),1.34,migration z between -2 and 2; enough cells,5061,inactive
MAN2B1 (mannosidase alpha class 2B member 1),-0.91,migration z between -2 and 2; enough cells,5522,inactive
ZNF80 (zinc finger protein 80),0.03,migration z between -2 and 2; enough cells,4115,inactive
EXD1 (exonuclease 3'-5' domain containing 1),2.51,migration z above 2; enough cells,6706,active
CLIC2 (CLIC family member 2),0.78,migration z between -2 and 2; enough cells,5376,inactive
PRKACA (protein kinase cAMP-activated catalytic subunit alpha),-0.62,migration z between -2 and 2; enough cells,6418,inactive
GPRIN3 (GPRIN family member 3),1.08,migration z between -2 and 2; enough cells,3996,inactive
XTBD1 (XRN2 binding domain containing 1),-0.62,migration z between -2 and 2; enough cells,5499,inactive
GNRH2 (gonadotropin releasing hormone 2),0.56,migration z between -2 and 2; enough cells,6150,inactive
SKP2 (S-phase kinase associated protein 2),-1.35,migration z between -2 and 2; enough cells,5219,inactive
"LSM1 (LSM1 homolog, mRNA degradation associated)",0.29,migration z between -2 and 2; enough cells,6736,inactive
ARHGEF6 (Rac/Cdc42 guanine nucleotide exchange factor 6),0.96,migration z between -2 and 2; enough cells,5374,inactive
TCEANC2,2.21,migration z above 2; enough cells,4236,active
ITGB1BP2 (integrin subunit beta 1 binding protein 2),0.46,migration z between -2 and 2; enough cells,6340,inactive
"METTL21C (methyltransferase 21C, AARS1 lysine)",-0.08,migration z between -2 and 2; enough cells,5046,inactive
STPG4 (sperm-tail PG-rich repeat containing 4),-0.68,migration z between -2 and 2; enough cells,5177,inactive
STOML3 (stomatin like 3),0.41,migration z between -2 and 2; enough cells,5266,inactive
CFAP263 (cilia and flagella associated protein 263),-0.02,migration z between -2 and 2; enough cells,6334,inactive
CPSF2 (cleavage and polyadenylation specific factor 2),-0.96,migration z between -2 and 2; enough cells,5620,inactive
ZNF212 (zinc finger protein 212),-1.18,migration z between -2 and 2; enough cells,5146,inactive
"F3 (coagulation factor III, tissue factor)",-0.74,migration z between -2 and 2; enough cells,6491,inactive
"SRC (SRC proto-oncogene, non-receptor tyrosine kinase)",-0.9,migration z between -2 and 2; enough cells,6278,inactive
SHMT1 (serine hydroxymethyltransferase 1),-0.08,migration z between -2 and 2; enough cells,5891,inactive
EDA2R (ectodysplasin A2 receptor),-0.42,migration z between -2 and 2; enough cells,6626,inactive
EFNA3 (ephrin A3),-2.1,migration z below -2; enough cells,4419,active
BAG5 (BAG cochaperone 5),0.75,migration z between -2 and 2; enough cells,6506,inactive
RXRG (retinoid X receptor gamma),0.29,migration z between -2 and 2; enough cells,5436,inactive
LURAP1L (leucine rich adaptor protein 1 like),1.47,migration z between -2 and 2; enough cells,7388,inactive
MRPL33 (mitochondrial ribosomal protein L33),0.86,migration z between -2 and 2; enough cells,6345,inactive
KRTAP9-4 (keratin associated protein 9-4),-3.9,under 3300 nuclei; migration not judged,2733,inactive
EHMT1 (euchromatic histone lysine methyltransferase 1),-0.32,migration z between -2 and 2; enough cells,5800,inactive
KLF14 (KLF transcription factor 14),-0.02,migration z between -2 and 2; enough cells,5088,inactive
SOX8 (SRY-box transcription factor 8),0.64,migration z between -2 and 2; enough cells,4855,inactive
LRRC73 (leucine rich repeat containing 73),-0.14,migration z between -2 and 2; enough cells,3886,inactive
TBC1D22A (TBC1 domain family member 22A),0.72,migration z between -2 and 2; enough cells,5222,inactive
CRISPLD2 (cysteine rich secretory protein LCCL domain containing 2),0.28,migration z between -2 and 2; enough cells,5292,inactive
SIX1 (SIX homeobox 1),2.64,migration z above 2; enough cells,7304,active
GRM3 (glutamate metabotropic receptor 3),0.93,migration z between -2 and 2; enough cells,6360,inactive
ARRDC5 (arrestin domain containing 5),0.08,migration z between -2 and 2; enough cells,6005,inactive
FBXO7 (F-box protein 7),-2.78,migration z below -2; enough cells,4724,active
TRPC7,-0.8,migration z between -2 and 2; enough cells,4781,inactive
SLC35A1,-1.15,migration z between -2 and 2; enough cells,3374,inactive
ASB4 (ankyrin repeat and SOCS box containing 4),0.78,migration z between -2 and 2; enough cells,4708,inactive
CDH16 (cadherin 16),-0.77,migration z between -2 and 2; enough cells,4785,inactive
CSN3 (casein kappa),-0.18,migration z between -2 and 2; enough cells,4568,inactive
VILL (villin like),1.12,migration z between -2 and 2; enough cells,4860,inactive
MOCS1 (molybdenum cofactor synthesis 1),-0.03,migration z between -2 and 2; enough cells,6007,inactive
GARIN2 (golgi associated RAB2 interactor family member 2),0.92,migration z between -2 and 2; enough cells,6124,inactive
TENT5C (terminal nucleotidyltransferase 5C),-0.94,migration z between -2 and 2; enough cells,6118,inactive
LACTB (lactamase beta),0.54,migration z between -2 and 2; enough cells,6366,inactive
"VARS2 (valyl-tRNA synthetase 2, mitochondrial)",1.4,migration z between -2 and 2; enough cells,7727,inactive
DMRTC2 (DMRT like family C2),0.23,migration z between -2 and 2; enough cells,5788,inactive
RORA (RAR related orphan receptor A),-0.02,migration z between -2 and 2; enough cells,5224,inactive
TMBIM1 (transmembrane BAX inhibitor motif containing 1),0.94,migration z between -2 and 2; enough cells,6141,inactive
MMP12 (matrix metallopeptidase 12),-0.42,migration z between -2 and 2; enough cells,5020,inactive
NLRP12 (NLR family pyrin domain containing 12),-0.34,migration z between -2 and 2; enough cells,6366,inactive
THAP10 (THAP domain containing 10),0.44,migration z between -2 and 2; enough cells,5268,inactive
"JMY (junction mediating and regulatory protein, p53 cofactor)",-1.83,migration z between -2 and 2; enough cells,4882,inactive
MORN5 (MORN repeat containing 5),0.71,migration z between -2 and 2; enough cells,5106,inactive
MXD4 (MAX dimerization protein 4),-2,migration z between -2 and 2; enough cells,4036,inactive
LPAR3 (lysophosphatidic acid receptor 3),-1.84,migration z between -2 and 2; enough cells,3620,inactive
AKTIP (AKT interacting protein),0.31,migration z between -2 and 2; enough cells,5406,inactive
PGP (phosphoglycolate phosphatase),1.53,migration z between -2 and 2; enough cells,5236,inactive
"NALCN (sodium leak channel, non-selective)",-0.62,migration z between -2 and 2; enough cells,5124,inactive
